These results are taken from patent US11766414B2 (Indi Molecular, Inc., priority 2020, dated 2023).

The data set is described as follows: Fmoc solid-phase peptide synthesis; CTC resin; HBTU/DIPEA in DMF (HATU for some residues). As to conditions: whole synthesis, analytical HPLC and LC/MS.

Turning to folate-hshta-Gly-Phe-Lys(DOTA), the “final HPLC purity” value turned out to be 97%.
